# According to the supplement of paper PMC8728848:
# The other results are listed elsewhere or left out.
# What was measured:
# Test in all cases: glycan array binding signal (z-score within array); higher = stronger binding
# Conditions in all cases: glycan notation: IUPAC condensed, linker removed
# Fuc(a1-3)GlcNAc = target: Fuc(a1-3)GlcNAc
# How it was run: (§1)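 The Consortium for Functional Glycomics database supplied 3228 glycan arrays, of which those lacking an available protein sequence were dropped. The binding signal, a within-array Z-score, was averaged across arrays of the same protein sequence and across linkers. Negative scores can be read as non-binding.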
# [1] = target: Fuc(a1-3)[Gal(b1-4)]Glc6S
# How it was run: as §1
# [2] = target: Fuc(a1-3)[Gal(b1-4)]GlcNAc
# How it was run: as §1
# [3] = target: Fuc(a1-3)[Gal(b1-4)]GlcNAc(b1-2)Man
# How it was run: as §1
# [4] = target: Fuc(a1-3)[Gal(b1-4)]GlcNAc(b1-2)Man(a1-3)[Fuc(a1-3)[Gal(b1-4)]GlcNAc(b1-2)Man(a1-6)]Man(b1-4)GlcNAc(b1-4)GlcNAc
# How it was run: as §1
# [5] = target: Fuc(a1-3)[Gal(b1-4)]GlcNAc(b1-2)Man(a1-3)[Fuc(a1-3)[Gal(b1-4)]GlcNAc(b1-2)Man(a1-6)]Man(b1-4)GlcNAc(b1-4)[Fuc(a1-6)]GlcNAc
# How it was run: as §1
# [6] = target: Fuc(a1-3)[Gal(b1-4)]GlcNAc(b1-3)Gal(b1-3)[Fuc(a1-4)]GlcNAc
# How it was run: as §1
# [7] = target: Fuc(a1-3)[Gal(b1-4)]GlcNAc(b1-3)Gal(b1-4)[Fuc(a1-3)]GlcNAc
# How it was run: as §1
# [8] = target: Fuc(a1-3)[Gal(b1-4)]GlcNAc(b1-3)Gal(b1-4)[Fuc(a1-3)]GlcNAc(b1-3)Gal(b1-4)[Fuc(a1-3)]GlcNAc
# How it was run: as §1
# [9] = target: Fuc(a1-3)[Gal(b1-4)]GlcNAc(b1-3)GalNAc
# How it was run: as §1
# [10] = target: Fuc(a1-3)[Gal(b1-4)]GlcNAc(b1-6)GalNAc
# How it was run: as §1
# [11] = target: Fuc(a1-3)[Gal(b1-4)]GlcNAc(b1-6)[Gal(b1-3)GlcNAc(b1-3)]Gal(b1-4)Glc
# How it was run: as §1
# [12] = target: Fuc(a1-3)[Gal(b1-4)]GlcNAc6S
# How it was run: as §1
# [13] = target: Fuc(a1-3)[Gal3S(b1-4)]Glc
# How it was run: as §1
# [14] = target: Fuc(a1-3)[Gal3S(b1-4)]GlcNAc
# How it was run: as §1
# [15] = target: Fuc(a1-3)[Gal3S(b1-4)]GlcNAc6S
# How it was run: as §1
# [16] = target: Fuc(a1-3)[GalNAc(b1-4)]GlcNAc
# How it was run: as §1
# [17] = target: Fuc(a1-3)[GalNAc(b1-4)]GlcNAc6S
# How it was run: as §1
# Fuc(a1-4)GlcNAc = target: Fuc(a1-4)GlcNAc
# How it was run: as §1
# Fuc(b1-3)GlcNAc = target: Fuc(b1-3)GlcNAc
# How it was run: as §1
# Gal(a1-2)Gal = target: Gal(a1-2)Gal
# How it was run: as §1
# Gal(a1-3)Gal = target: Gal(a1-3)Gal
# How it was run: as §1
# Gal(a1-3)Gal(b1-3)GlcNAc = target: Gal(a1-3)Gal(b1-3)GlcNAc
# How it was run: as §1
# [18] = target: Gal(a1-3)Gal(b1-3)GlcNAc(b1-2)Man
# How it was run: as §1
# [19] = target: Gal(a1-3)Gal(b1-3)GlcNAc(b1-2)Man(a1-3)[Gal(a1-3)Gal(b1-3)GlcNAc(b1-2)Man(a1-6)]Man(b1-4)GlcNAc(b1-4)GlcNAc
# How it was run: as §1
# [20] = target: Gal(a1-3)Gal(b1-3)GlcNAc(b1-3)GalNAc
# How it was run: as §1
# [21] = target: Gal(a1-3)Gal(b1-3)GlcNAc(b1-6)GalNAc
# How it was run: as §1
# [22] = target: Gal(a1-3)Gal(b1-3)[Fuc(a1-4)]GlcNAc(b1-2)Man(a1-3)[Gal(a1-3)Gal(b1-3)[Fuc(a1-4)]GlcNAc(b1-2)Man(a1-6)]Man(b1-4)GlcNAc(b1-4)GlcNAc
# How it was run: as §1
# Gal(a1-3)Gal(b1-4)Glc = target: Gal(a1-3)Gal(b1-4)Glc
# How it was run: as §1
# Gal(a1-3)Gal(b1-4)GlcNAc = target: Gal(a1-3)Gal(b1-4)GlcNAc
# How it was run: as §1
# [23] = target: Gal(a1-3)Gal(b1-4)GlcNAc(b1-2)Man
# How it was run: as §1
# [24] = target: Gal(a1-3)Gal(b1-4)GlcNAc(b1-2)Man(a1-3)[Gal(a1-3)Gal(b1-4)GlcNAc(b1-2)Man(a1-6)]Man(b1-4)GlcNAc(b1-4)GlcNAc
# How it was run: as §1
# [25] = target: Gal(a1-3)Gal(b1-4)GlcNAc(b1-3)GalNAc
# How it was run: as §1
# [26] = target: Gal(a1-3)Gal(b1-4)GlcNAc(b1-6)GalNAc
# How it was run: as §1
# [27] = target: Gal(a1-3)Gal(b1-4)[Fuc(a1-3)]GlcNAc
# How it was run: as §1
# [28] = target: Gal(a1-3)Gal(b1-4)[Fuc(a1-3)]GlcNAc(b1-2)Man(a1-3)[Gal(a1-3)Gal(b1-4)[Fuc(a1-3)]GlcNAc(b1-2)Man(a1-6)]Man(b1-4)GlcNAc(b1-4)GlcNAc
# How it was run: as §1
# Gal(a1-3)GalNAc = target: Gal(a1-3)GalNAc
# How it was run: as §1
# [29] = target: Gal(a1-3)[Gal(a1-4)]Gal(b1-4)GlcNAc
# How it was run: as §1
# [30] = target: Gal(a1-4)Gal(b1-3)GlcNAc(b1-2)Man(a1-3)[Gal(a1-4)Gal(b1-3)GlcNAc(b1-2)Man(a1-6)]Man(b1-4)GlcNAc(b1-4)GlcNAc
# How it was run: as §1
# Gal(a1-4)Gal(b1-4)Glc = target: Gal(a1-4)Gal(b1-4)Glc
# How it was run: as §1
# Gal(a1-4)Gal(b1-4)GlcNAc = target: Gal(a1-4)Gal(b1-4)GlcNAc
# How it was run: as §1
# [31] = target: Gal(a1-4)Gal(b1-4)GlcNAc(b1-2)Man(a1-3)[Gal(a1-4)Gal(b1-4)GlcNAc(b1-2)Man(a1-6)]Man(b1-4)GlcNAc(b1-4)GlcNAc
# How it was run: as §1
# [32] = target: Gal(a1-4)Gal(b1-4)GlcNAc(b1-3)Gal(b1-4)Glc
# How it was run: as §1
# Gal(a1-4)GlcNAc = target: Gal(a1-4)GlcNAc
# How it was run: as §1
# Gal(a1-6)Glc = target: Gal(a1-6)Glc
# How it was run: as §1
binder,measurement,setting,value
LlpB (Pseudomonas fluorescens) (protein) MGSSHHHHHHSSGLVPRGSHMASSGFRIILFNSANNGTAILPPRNCLVAGQYLESPSKRYKLILEADGNLRLYDNGVPIWVADSSVPYTYVDNRPNTNLVTCFYMQGSAFLVDRVGSRTWATIGDWIDGAADRAYLQVQDDGNVVVVDGVPRWARFGFTPAALPNRGVFYPDHGTGPLPSFPVWSWTF,glycan array binding signal (z-score),Fuc(a1-3)GlcNAc,1.64
same,glycan array binding signal (z-score),[1],0.695
same,glycan array binding signal (z-score),[2],-0.593
same,glycan array binding signal (z-score),[3],0.352
same,glycan array binding signal (z-score),[4],0.125
same,glycan array binding signal (z-score),[5],0.302
same,glycan array binding signal (z-score),[6],-1.01
same,glycan array binding signal (z-score),[7],1.4
same,glycan array binding signal (z-score),[8],-0.948
same,glycan array binding signal (z-score),[9],0.389
same,glycan array binding signal (z-score),[10],0.909
same,glycan array binding signal (z-score),[11],-0.683
same,glycan array binding signal (z-score),[12],-0.288
same,glycan array binding signal (z-score),[13],-0.747
same,glycan array binding signal (z-score),[14],-0.836
same,glycan array binding signal (z-score),[15],0.887
same,glycan array binding signal (z-score),[16],2.26
same,glycan array binding signal (z-score),[17],0.363
same,glycan array binding signal (z-score),Fuc(a1-4)GlcNAc,-1.58
same,glycan array binding signal (z-score),Fuc(b1-3)GlcNAc,1.29
same,glycan array binding signal (z-score),Gal(a1-2)Gal,0.556
same,glycan array binding signal (z-score),Gal(a1-3)Gal,-0.672
same,glycan array binding signal (z-score),Gal(a1-3)Gal(b1-3)GlcNAc,-0.923
same,glycan array binding signal (z-score),[18],0.466
same,glycan array binding signal (z-score),[19],0.541
same,glycan array binding signal (z-score),[20],0.257
same,glycan array binding signal (z-score),[21],-0.613
same,glycan array binding signal (z-score),[22],-0.757
same,glycan array binding signal (z-score),Gal(a1-3)Gal(b1-4)Glc,-0.46
same,glycan array binding signal (z-score),Gal(a1-3)Gal(b1-4)GlcNAc,-0.46
same,glycan array binding signal (z-score),[23],-1.36
same,glycan array binding signal (z-score),[24],0.058
same,glycan array binding signal (z-score),[25],-0.222
same,glycan array binding signal (z-score),[26],0.921
same,glycan array binding signal (z-score),[27],-0.624
same,glycan array binding signal (z-score),[28],0.849
same,glycan array binding signal (z-score),Gal(a1-3)GalNAc,-0.011
same,glycan array binding signal (z-score),[29],1.1
same,glycan array binding signal (z-score),[30],0.188
same,glycan array binding signal (z-score),Gal(a1-4)Gal(b1-4)Glc,-0.983
same,glycan array binding signal (z-score),Gal(a1-4)Gal(b1-4)GlcNAc,1.03
same,glycan array binding signal (z-score),[31],-0.01
same,glycan array binding signal (z-score),[32],-1.38
same,glycan array binding signal (z-score),Gal(a1-4)GlcNAc,-0.064
same,glycan array binding signal (z-score),Gal(a1-6)Glc,-1.01

# A stretch from the list above, for reference:
binder,measurement,setting,value
LlpB (Pseudomonas fluorescens) (protein) MGSSHHHHHHSSGLVPRGSHMASSGFRIILFNSANNGTAILPPRNCLVAGQYLESPSKRYKLILEADGNLRLYDNGVPIWVADSSVPYTYVDNRPNTNLVTCFYMQGSAFLVDRVGSRTWATIGDWIDGAADRAYLQVQDDGNVVVVDGVPRWARFGFTPAALPNRGVFYPDHGTGPLPSFPVWSWTF,glycan array binding signal (z-score),[6],-1.01
same,glycan array binding signal (z-score),[7],1.4
